Data reported in US20230212285A1.
Residue numbers refer to the chain shown, from its start. No constants are given. Whether binding was seen depends on the method and setting. Some results given as binding are weak or reduced against the parent protein; the word gives no strength.

Sequences of proteins named here, by UniProt entry; tags and fusion partners are left off. A change or cut given only in a name is not applied to a line headed by its entry.
UniProt P10721: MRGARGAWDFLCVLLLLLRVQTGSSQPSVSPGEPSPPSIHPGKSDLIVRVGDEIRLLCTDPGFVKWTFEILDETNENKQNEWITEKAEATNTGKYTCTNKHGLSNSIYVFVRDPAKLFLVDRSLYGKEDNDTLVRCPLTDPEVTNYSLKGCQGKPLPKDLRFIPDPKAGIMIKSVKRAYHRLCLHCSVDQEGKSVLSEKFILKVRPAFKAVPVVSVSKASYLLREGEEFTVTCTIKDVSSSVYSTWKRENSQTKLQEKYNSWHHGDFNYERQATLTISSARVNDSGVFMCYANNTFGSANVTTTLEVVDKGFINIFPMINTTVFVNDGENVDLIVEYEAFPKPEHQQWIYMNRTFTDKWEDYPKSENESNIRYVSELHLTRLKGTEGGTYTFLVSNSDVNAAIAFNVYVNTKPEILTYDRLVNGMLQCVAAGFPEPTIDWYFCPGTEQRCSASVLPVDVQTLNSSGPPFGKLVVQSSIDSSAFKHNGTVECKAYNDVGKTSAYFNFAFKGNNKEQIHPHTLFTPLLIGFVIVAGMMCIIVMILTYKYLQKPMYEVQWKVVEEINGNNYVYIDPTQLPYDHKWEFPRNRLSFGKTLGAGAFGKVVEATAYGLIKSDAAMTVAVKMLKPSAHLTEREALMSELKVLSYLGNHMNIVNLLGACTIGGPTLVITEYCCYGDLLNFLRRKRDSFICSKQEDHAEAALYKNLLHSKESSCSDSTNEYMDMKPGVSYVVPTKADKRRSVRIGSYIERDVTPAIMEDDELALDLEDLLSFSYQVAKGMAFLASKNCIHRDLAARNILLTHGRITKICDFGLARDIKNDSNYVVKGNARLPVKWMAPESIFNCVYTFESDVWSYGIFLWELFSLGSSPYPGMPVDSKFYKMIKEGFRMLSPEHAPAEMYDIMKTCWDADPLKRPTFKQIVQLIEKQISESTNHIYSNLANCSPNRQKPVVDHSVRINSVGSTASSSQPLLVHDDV

B1: MH5.33 (antibody, human IgG1, V domains shown)
VH: QVQLVQSGAEVKKPGASVKVSCKASGYTFTNYYMNWVRQAPGQGLEWMGRIYPASGNTYYAQKFQGRVTMTRDTSTSTVYMELSSLRSEDTAVYYCARGVWYYDYWGQGTLVTVSS
VL: DIQMTQSPSSLSASVGDRVTITCRASQGIRTNLAWFQQKPGKAPKSLIYAASSLQSGVPSRFSGSGSGTDFTLTISSLQPEDFATYYCQQYANYPRTFGGGTKVEIK
B2: MH5.1 (antibody, human IgG1, V domains shown)
VH: B1 VH with A54G, S55T
VL: B1 VL
B3: F-C5 (antibody, human IgG1, V domains shown)
VH: B1 VH with N31D, A54G, W101Y, Y103F, Y105E
VL: B1 VL with I29V, L54R, A92N, N93S
B4: MH5.6 (antibody, human IgG1, V domains shown)
VH: B1 VH with N31D, Y32H, A54G, S55T, Y103F, Y105E
VL: B1 VL
B5: MH5.35 (antibody, human IgG1, V domains shown)
VH: B1 VH with Y103F, Y105T
VL: B1 VL
B6: MH11 (antibody, human IgG1, V domains shown)
VH: B1 VH with N31D, A54G, W101Y
VL: B1 VL with A92N, N93A
B7: MH5.11 (antibody, human IgG1, V domains shown)
VH: B1 VH with N31D, Y32H
VL: B1 VL
B8: TTP6 (antibody, human IgG1, V domains shown)
VH: B1 VH with N31D, A54G, W101Y
VL: B1 VL with I29V, A92N, N93A, R96H
B9: MH5.16 (antibody, human IgG1, V domains shown)
VH: B1 VH with N31D, Y32F, A54G, S55T, Y103F, Y105T
VL: B1 VL
B10: MH5.21 (antibody, human IgG1, V domains shown)
VH: B1 VH with N31D, Y32F, A54G, S55A, Y103F, Y105E
VL: B1 VL
B11: TTP4 (antibody, human IgG1, V domains shown)
VH: B1 VH with N31D, A54G, W101Y
VL: B1 VL with I29V, A50S, A92N, N93A, R96H
B12: MH5.30 (antibody, human IgG1, V domains shown)
VH: B1 VH with A54G, S55A, Y103F, Y105S
VL: B1 VL
B13: MH5.12 (antibody, human IgG1, V domains shown)
VH: B1 VH with N31D, Y32H, Y103F, Y105S
VL: B1 VL
B14: MH5.26 (antibody, human IgG1, V domains shown)
VH: B1 VH with A54G, S55T, Y103F, Y105S
VL: B1 VL
B15: MH5.28 (antibody, human IgG1, V domains shown)
VH: B1 VH with A54G, S55T, Y103F, Y105E
VL: B1 VL
B16: MH8 (antibody, human IgG1, V domains shown)
VH: B1 VH with N31D, A54G, W101Y
VL: B1 VL with A50S, A92S, N93S
B17: MH13 (antibody, human IgG1, V domains shown)
VH: B1 VH with N31D, A54G, W101Y
VL: B1 VL with I29V, A92N, N93A
B18: MH5.10 (antibody, human IgG1, V domains shown)
VH: B1 VH with N31D, Y32H, A54G, S55A, Y103F, Y105E
VL: B1 VL
B19: MH5.13 (antibody, human IgG1, V domains shown)
VH: B1 VH with N31D, Y32H, Y103F, Y105T
VL: B1 VL
B20: MH10 (antibody, human IgG1, V domains shown)
VH: B1 VH with N31D, A54G, W101Y
VL: B1 VL with A50S, A92T, N93S
B21: MH5.3 (antibody, human IgG1, V domains shown)
VH: B1 VH with N31D, Y32H, A54G, S55T
VL: B1 VL
B22: MH12 (antibody, human IgG1, V domains shown)
VH: B1 VH with N31D, A54G, W101Y
VL: B1 VL with I29V, A92N, N93S
B23: MH5.5 (antibody, human IgG1, V domains shown)
VH: B1 VH with N31D, Y32H, A54G, S55T, Y103F, Y105T
VL: B1 VL
B24: MH5.4 (antibody, human IgG1, V domains shown)
VH: B1 VH with N31D, Y32H, A54G, S55T, Y103F, Y105S
VL: B1 VL
B25: MH5.7 (antibody, human IgG1, V domains shown)
VH: B1 VH with N31D, Y32H, A54G, S55A
VL: B1 VL
B26: MH5.9 (antibody, human IgG1, V domains shown)
VH: B1 VH with N31D, Y32H, A54G, S55A, Y103F, Y105T
VL: B1 VL
B27: MH5.17 (antibody, human IgG1, V domains shown)
VH: B1 VH with N31D, Y32F, A54G, S55T, Y103F, Y105E
VL: B1 VL
B28: MH5.27 (antibody, human IgG1, V domains shown)
VH: B1 VH with A54G, S55T, Y103F, Y105T
VL: B1 VL
B29: MH5.36 (antibody, human IgG1, V domains shown)
VH: B1 VH with Y103F, Y105E
VL: B1 VL
B30: MH5.20 (antibody, human IgG1, V domains shown)
VH: B1 VH with N31D, Y32F, A54G, S55A, Y103F, Y105T
VL: B1 VL
B31: MH2 (antibody, human IgG1, V domains shown)
VH: B1 VH with N31D, A54G, W101Y
VL: B1 VL with A50S, N93S
B32: MH3 (antibody, human IgG1, V domains shown)
VH: B1 VH with N31D, A54G, W101Y
VL: B1 VL with A50S, A92N, N93A
B33: MH5.8 (antibody, human IgG1, V domains shown)
VH: B1 VH with N31D, Y32H, A54G, S55A, Y103F, Y105S
VL: B1 VL
B34: MH5.32 (antibody, human IgG1, V domains shown)
VH: B1 VH with A54G, S55A, Y103F, Y105E
VL: B1 VL
B35: MH5.25 (antibody, human IgG1, V domains shown)
VH: B1 VH with N31D, Y32F, Y103F, Y105E
VL: B1 VL
B36: MH5.29 (antibody, human IgG1, V domains shown)
VH: B1 VH with A54G, S55A
VL: B1 VL
B37: MH6 (antibody, human IgG1, V domains shown)
VH: B1 VH with N31D, A54G, W101Y
VL: B1 VL with A50S, A92N, N93S, R96K
B38: MH5.31 (antibody, human IgG1, V domains shown)
VH: B1 VH with A54G, S55A, Y103F, Y105T
VL: B1 VL
B39: MH5.19 (antibody, human IgG1, V domains shown)
VH: B1 VH with N31D, Y32F, A54G, S55A, Y103F, Y105S
VL: B1 VL
B40: MH7 (antibody, human IgG1, V domains shown)
VH: B1 VH with N31D, A54G, W101Y
VL: B1 VL with A50S, A92N, N93S, R96H
B41: MH5.15 (antibody, human IgG1, V domains shown)
VH: B1 VH with N31D, Y32F, A54G, S55T, Y103F, Y105S
VL: B1 VL
B42: MH5.14 (antibody, human IgG1, V domains shown)
VH: B1 VH with N31D, Y32H, Y103F, Y105E
VL: B1 VL
B43: TTP2 (antibody, human IgG1, V domains shown)
VH: B1 VH with N31D, A54G, W101Y
VL: B1 VL with A92N, N93S, R96H
B44: MH5.18 (antibody, human IgG1, V domains shown)
VH: B1 VH with N31D, Y32F, A54G, S55A
VL: B1 VL

The binders below were run against human C-KIT on stably transfected CHO-K1 cells (human) (UniProt P10721) (assay: flow cytometry).

binding, binds:
B1
B2

What follows are binders tested against human C-KIT-Fc protein (human) (UniProt P10721) (assay: direct titration ELISA).

binding, binds:
B3
B4
B5
B6
B7
B8
B9
B10
B11
B12
B13
B14
B15
B16
B17
B18
B19
B20
B21
B22
B23
B24
B25
B26
B27
B28
B29
B30
B31
B32
B33
B34
B35
B36
B37
B38
B39
B40
B41
B2
B42
B43
B44
